## Library screen at single concentrations

The chains behind the UniProt entries cited, without tags or fusion partners. Residues count along the entry.
UniProt P9WNZ1, whole entry: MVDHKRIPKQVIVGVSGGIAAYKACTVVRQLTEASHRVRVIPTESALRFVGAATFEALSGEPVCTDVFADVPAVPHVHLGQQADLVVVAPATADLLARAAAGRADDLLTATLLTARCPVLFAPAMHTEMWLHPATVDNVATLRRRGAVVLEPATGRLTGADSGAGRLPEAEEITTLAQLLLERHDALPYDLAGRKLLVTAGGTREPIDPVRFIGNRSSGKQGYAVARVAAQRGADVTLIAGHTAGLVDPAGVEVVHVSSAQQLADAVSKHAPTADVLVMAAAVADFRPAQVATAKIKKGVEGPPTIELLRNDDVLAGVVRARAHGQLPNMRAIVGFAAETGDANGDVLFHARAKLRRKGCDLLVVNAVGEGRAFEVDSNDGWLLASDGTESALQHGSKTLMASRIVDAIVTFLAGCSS
UniProt Q8IDJ8, 1-583: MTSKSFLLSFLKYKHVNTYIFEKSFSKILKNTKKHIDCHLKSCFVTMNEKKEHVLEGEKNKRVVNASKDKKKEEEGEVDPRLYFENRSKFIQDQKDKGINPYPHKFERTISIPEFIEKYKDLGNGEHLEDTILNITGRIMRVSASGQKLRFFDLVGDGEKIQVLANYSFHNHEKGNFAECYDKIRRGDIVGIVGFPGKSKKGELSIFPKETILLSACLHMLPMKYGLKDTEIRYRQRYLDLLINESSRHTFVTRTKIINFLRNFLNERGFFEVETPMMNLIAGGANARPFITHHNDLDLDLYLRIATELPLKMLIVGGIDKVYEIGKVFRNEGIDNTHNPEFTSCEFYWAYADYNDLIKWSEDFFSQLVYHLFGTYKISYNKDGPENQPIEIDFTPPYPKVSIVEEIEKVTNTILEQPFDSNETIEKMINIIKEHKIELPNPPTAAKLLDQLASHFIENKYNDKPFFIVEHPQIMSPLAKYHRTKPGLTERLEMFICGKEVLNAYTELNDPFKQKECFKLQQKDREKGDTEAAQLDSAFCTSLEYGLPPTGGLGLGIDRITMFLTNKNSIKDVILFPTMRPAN
UniProt P9WFT3, whole entry: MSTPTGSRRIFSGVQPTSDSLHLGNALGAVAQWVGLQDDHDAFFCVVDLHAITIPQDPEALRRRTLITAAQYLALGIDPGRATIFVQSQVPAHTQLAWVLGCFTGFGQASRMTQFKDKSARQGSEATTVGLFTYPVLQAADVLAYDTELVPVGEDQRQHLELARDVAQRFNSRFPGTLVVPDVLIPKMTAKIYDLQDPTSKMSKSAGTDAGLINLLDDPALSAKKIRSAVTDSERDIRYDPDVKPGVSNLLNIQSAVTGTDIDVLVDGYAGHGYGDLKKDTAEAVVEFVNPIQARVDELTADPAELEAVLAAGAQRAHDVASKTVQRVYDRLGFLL
UniProt I6X8D2, whole entry: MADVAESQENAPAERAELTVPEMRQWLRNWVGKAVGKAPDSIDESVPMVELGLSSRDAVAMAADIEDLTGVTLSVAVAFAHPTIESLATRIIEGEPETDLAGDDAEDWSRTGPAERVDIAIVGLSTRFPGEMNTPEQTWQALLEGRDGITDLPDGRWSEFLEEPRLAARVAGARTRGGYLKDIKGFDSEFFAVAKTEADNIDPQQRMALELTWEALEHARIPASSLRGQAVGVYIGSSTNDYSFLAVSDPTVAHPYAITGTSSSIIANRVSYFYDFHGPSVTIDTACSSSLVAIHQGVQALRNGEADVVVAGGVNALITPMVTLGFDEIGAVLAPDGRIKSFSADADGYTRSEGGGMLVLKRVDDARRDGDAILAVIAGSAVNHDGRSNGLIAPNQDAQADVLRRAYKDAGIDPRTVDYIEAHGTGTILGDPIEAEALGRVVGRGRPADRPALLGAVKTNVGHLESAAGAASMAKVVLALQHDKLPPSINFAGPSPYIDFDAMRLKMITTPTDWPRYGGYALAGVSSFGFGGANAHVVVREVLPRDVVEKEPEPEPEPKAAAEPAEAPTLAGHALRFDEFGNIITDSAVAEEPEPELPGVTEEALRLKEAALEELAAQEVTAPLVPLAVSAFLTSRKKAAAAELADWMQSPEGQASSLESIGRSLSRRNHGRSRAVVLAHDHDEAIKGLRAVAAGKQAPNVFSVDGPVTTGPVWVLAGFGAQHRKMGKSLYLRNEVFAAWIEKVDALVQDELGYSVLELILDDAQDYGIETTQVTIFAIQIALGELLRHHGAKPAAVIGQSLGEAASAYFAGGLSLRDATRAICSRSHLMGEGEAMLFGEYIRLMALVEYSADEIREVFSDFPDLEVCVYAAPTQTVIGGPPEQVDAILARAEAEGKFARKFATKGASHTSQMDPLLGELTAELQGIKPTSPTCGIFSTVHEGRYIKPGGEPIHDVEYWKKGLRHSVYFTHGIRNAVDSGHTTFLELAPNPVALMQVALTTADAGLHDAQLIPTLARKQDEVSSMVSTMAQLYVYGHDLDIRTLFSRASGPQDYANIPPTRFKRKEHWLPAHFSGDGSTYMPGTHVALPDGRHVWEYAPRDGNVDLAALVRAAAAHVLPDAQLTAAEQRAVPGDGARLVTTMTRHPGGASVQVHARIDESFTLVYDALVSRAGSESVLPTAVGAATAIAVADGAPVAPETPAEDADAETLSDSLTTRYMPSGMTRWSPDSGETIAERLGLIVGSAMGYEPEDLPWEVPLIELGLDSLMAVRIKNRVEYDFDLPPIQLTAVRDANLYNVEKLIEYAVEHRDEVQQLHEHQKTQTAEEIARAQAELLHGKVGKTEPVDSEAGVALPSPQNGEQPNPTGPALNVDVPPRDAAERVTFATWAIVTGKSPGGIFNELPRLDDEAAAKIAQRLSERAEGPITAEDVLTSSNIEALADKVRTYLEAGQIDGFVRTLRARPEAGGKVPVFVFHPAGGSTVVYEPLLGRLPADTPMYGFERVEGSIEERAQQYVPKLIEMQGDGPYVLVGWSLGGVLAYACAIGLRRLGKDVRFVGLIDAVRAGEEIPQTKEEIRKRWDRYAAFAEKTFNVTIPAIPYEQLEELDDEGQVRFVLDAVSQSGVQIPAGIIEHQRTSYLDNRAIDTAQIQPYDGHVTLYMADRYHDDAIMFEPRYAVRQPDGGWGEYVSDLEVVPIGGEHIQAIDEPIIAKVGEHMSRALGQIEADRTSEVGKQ

Measurements from “University of Dundee, Small-Polar-MMV Screening Library” (2021), ChEMBL document CHEMBL3988442.

Results are given as percent effect. How 0% and 100% were set is not recorded. Most values in the screen are low, and negative values occur. The compounds are a random part of those screened. A dash means the value is not listed here; it may have been measured.

CoaBC: 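Enzyme assay of CoaBC with a phosphate dye (Biomol Green) read at 650 nm. Target: Coenzyme A biosynthesis protein CoaBC, Mycobacterium tuberculosis (UniProt P9WNZ1). Compounds at 30 µM. Direction is inferred from only a few compounds that gave an IC50; most scored high, so higher reads as stronger inhibition. Most strong results did not repeat in a second test. Size under these conditions: about 67,000 compounds, about 40 of them at 50% or above in at least one test.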
PfKRS1: 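Lysine-tRNA ligase, Plasmodium falciparum 3D7 (UniProt Q8IDJ8). Enzyme assay of the cytosolic lysyl-tRNA synthetase in 384-well plates, read by luminescence. Concentration: 30 µM. Direction is inferred from only a few compounds that gave an IC50; most scored high, so higher reads as stronger inhibition. Of about 69,000 compounds tested this way, about 49 (0.071%) reached 50% or more in at least one test.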
Toxoplasma: 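Assay of Toxoplasma gondii numbers, read through their beta-galactosidase reporter with a colour substrate. Compounds at 10 µM. Higher reads as fewer parasites (inferred from which compounds were picked for retests). Of about 67,000 compounds tested this way, about 260 (0.38%) reached 50% or more in at least one test.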
MtTrpRS: 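Tryptophan-tRNA ligase, Mycobacterium tuberculosis (UniProt P9WFT3). Enzyme assay of tryptophanyl-tRNA synthetase; the read-out is not stated. Tested at 10 µM. Higher most likely means stronger inhibition; the record gives no direction and few retests gave an IC50. Size under these conditions: about 65,000 compounds, about 64 of them at 50% or above in at least one test.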
Pks13 thioesterase: 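Polyketide synthase Pks13, Mycobacterium tuberculosis (UniProt I6X8D2). Enzyme assay of the thioesterase domain of polyketide synthase 13; the read-out is not stated. Tested at 30 µM. The record gives no direction; the compounds picked for IC50 retests had high values, so higher reads as stronger inhibition. Of about 67,000 compounds tested this way, about 300 (0.46%) reached 50% or more in at least one test.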

structure	CoaBC	PfKRS1	Toxoplasma	MtTrpRS	Pks13 thioesterase
N#Cc1ccc(CNCC(C(=O)N2CCOCC2)c2ccccc2)cc1 (stereo not drawn)	8.636%	2.386%	15.6%	-1.574%	-17.69%
Cc1cc(-c2cnc(NC3CCCC3)nc2-c2ccoc2)on1	3.431%	-1.334%	10.22%	-	20.57%
CS(=O)(=O)c1cn[nH]c1C1CCCN1C(=O)c1cccnc1 (stereo not drawn)	-0.9732%	1.959%	-21.13%	-1.797%	-5.308%
COc1ccc(C2CCCN2C(=O)NCCNc2ccccn2)cc1 (stereo not drawn)	1.899%	3.589%	-17.11%	-0.5439%	-11.23%
CCCn1nccc1C(=O)N1CCCN(CCCc2ccccc2)CC1	-3.226%	2.367%	18.32%	0.2467%	-25.04%
O=C(Cn1c(=O)oc2ccccc21)NCC(O)c1ccc2c(c1)CCO2 (stereo not drawn)	0.6274%	0.7502%	-6.052%	-1.025%	6.085%
O=C(Cc1ccccn1)N1CCC2(CC1)CC(Oc1ccccn1)CO2.O=C(O)C(F)(F)F.O=C(O)C(F)(F)F (stereo not drawn)	-	-	3.494%	-	-
CC(C)(C)C(NCC(=O)N1CCNC(=O)C1)c1ccccc1 (stereo not drawn)	2.945%	-1.925%	3.239%	4.499%	-0.6145%
Cc1cc(=O)n(CC(=O)NCC2CCCO2)c(-c2ccc(F)cc2)n1 (stereo not drawn)	-2.727%	-5.844%	8.291%	-2.403%	-12.32%
O=C(c1cc(F)ccc1Br)N1CCN(C(=O)C2CC2)CC1	5.957%	3.695%	2.695%	-0.6571%	-39.96%
Cc1nc(CN2Cc3nccn3CC(CN3CCOCC3)C2)cs1.O=C(O)C(F)(F)F.O=C(O)C(F)(F)F (stereo not drawn)	-	-	3.396%	-	-
COc1cccc(C(=O)Nc2n[nH]c(C3CCCO3)n2)c1 (stereo not drawn)	-5.896%	0.411%	-3.474%	2.309%	-30.35%
COc1cc(C(=O)NC(C)C)nc2c(C)cc(F)cc12	1.58%	2.559%	-	1.447%	-4.193%
CC(C)n1cnc2c(-c3cccnc3)nc(C3CCNCC3)cc21	1.724%	2.096%	-	-7.441%	-19.43%
CN1CCCC(c2cccc(-c3ccccc3F)n2)C1 (stereo not drawn)	4.358%	2.354%	16.46%	-2.937%	-5.826%
COc1ccc(F)cc1C[S+]([O-])CC(=O)NCc1ccccc1C (stereo not drawn)	-6.159%	-3.659%	4.189%	-2.437%	18.17%
CN1CCN(C)C2(CCN(Cc3ccsc3)CC2)C1=O.O=C(O)C(F)(F)F	-	-	-11.07%	-	-
Cc1noc(C)c1CN1CCn2cc(CN3CCCCC3)nc2C1.O=C(O)C(F)(F)F	-	-	4.898%	-	-
Cc1cccc(C2(C(=O)NS(=O)(=O)c3cnn(C)c3)CCCC2)c1	0.2198%	4.052%	9.732%	-2.562%	0.5941%
N#Cc1cccc(CN2CCn3cc(Cn4cccn4)nc3C2)c1	5.263%	5.267%	-	2.628%	3.399%
N#Cc1cccc(N2CC3(CCN(C(=O)c4ccncc4)C3)CC2=O)c1 (stereo not drawn)	-4.202%	3.02%	-	-4.01%	-2.762%
Cc1cc(C(=O)NC2CCCN(c3ccccc3)C2=O)on1 (stereo not drawn)	0.4464%	4.449%	-3.304%	2.309%	-8.856%
Cc1cnn(CC2CN(Cc3nc(C4CC4)no3)CCO2)c1 (stereo not drawn)	2.427%	-1.992%	-1.144%	-5.649%	6.751%
CC(C)(C)c1cc(=O)n2c(n1)SCC(C(=O)NCc1ccco1)C2 (stereo not drawn)	1.695%	4.24%	-11.12%	6.009%	-0.5374%
Cl.O=c1c2sccc2nc2n1CCN(Cc1ccccc1C(F)(F)F)CC2	-	-	1.893%	-	-
CCCN(CC1CC1)C(=O)CN1CCCC1c1cnn(C)c1 (stereo not drawn)	1.222%	2.119%	0.4428%	-2.897%	-5.977%
[H][C@@]12C[C@H](C(=O)NC3CCC3)[C@@]([H])(CN(C(=O)Nc3ccc(CC)cc3)C1)O2	-	-	14.64%	-	-
COCCO[C@@H]1C[C@H]2CN(C(=O)c3cnccn3)CCN2C1	3.68%	1.281%	-	1.574%	-11.03%
FC1(F)CCN(Cc2ccncc2)CC12CCN(c1cccnc1)C2 (stereo not drawn)	1.481%	2.571%	-	-	5.016%
CN(CC(=O)NCc1cccnc1N1CCCCC1)C(=O)c1cccs1	1.818%	-0.1687%	-10.53%	-8.825%	-5.08%
CCN1CCO[C@@H]2CN(C(=O)NCc3ccccc3)CC[C@@H]2C1	2.716%	4.338%	-	-	-11.84%
O=C(O)C(F)(F)F.O=C(O)C(F)(F)F.c1ccc(N2CCC3(COCCN(c4ncccn4)C3)C2)nc1 (stereo not drawn)	-	-	-7.574%	-	-
COc1cccc(OC)c1C(=O)N1C[C@@H](CN(C)C)[C@@H](CO)C1	1.576%	4.37%	6.722%	-0.2694%	-6.232%
CSCC[C@H](NC(=O)N1CCC(Cc2ccccc2)CC1)C(=O)O	-0.1266%	5.075%	-12.56%	4.61%	17.95%
N#CCCCS(=O)(=O)NC1(c2cccc(Br)c2)CC1	1.337%	5.298%	-	1.929%	-13.38%
COc1ccc(CNCc2nnc3n2CC(C(F)(F)F)CC3)cc1 (stereo not drawn)	0.2545%	-4.801%	8.047%	-0.8497%	-18.85%
Cc1noc([C@H]2C[C@@H]3CCN(C(=O)N(C)C)C[C@H]3O2)n1	-2.314%	3.109%	-	-2.528%	-13.59%
COCC1CC2(CCN(Cc3ccoc3)CC2)CN1Cc1ccccn1 (stereo not drawn)	1.98%	0.2098%	-7.016%	-	-13.8%
Cc1nc2ccc(CN3CC4(CCOC4)CCC3=O)cc2[nH]1 (stereo not drawn)	2.893%	0.6674%	-0.5325%	-4.739%	-43.09%

3 of the entries, repeated:

| structure | CoaBC | PfKRS1 | Toxoplasma | MtTrpRS | Pks13 thioesterase |
|---|---|---|---|---|---|
| `Cc1cccc(C2(C(=O)NS(=O)(=O)c3cnn(C)c3)CCCC2)c1` | 0.2198% | 4.052% | 9.732% | -2.562% | 0.5941% |
| `Cc1noc(C)c1CN1CCn2cc(CN3CCCCC3)nc2C1.O=C(O)C(F)(F)F` | - | - | 4.898% | - | - |
| `Cc1cnn(CC2CN(Cc3nc(C4CC4)no3)CCO2)c1` (stereo not drawn) | 2.427% | -1.992% | -1.144% | -5.649% | 6.751% |